Target: T1, 5-hydroxytryptamine receptor 1A (Rattus norvegicus, UniProt P19327)
T1 sequence (P19327 whole entry): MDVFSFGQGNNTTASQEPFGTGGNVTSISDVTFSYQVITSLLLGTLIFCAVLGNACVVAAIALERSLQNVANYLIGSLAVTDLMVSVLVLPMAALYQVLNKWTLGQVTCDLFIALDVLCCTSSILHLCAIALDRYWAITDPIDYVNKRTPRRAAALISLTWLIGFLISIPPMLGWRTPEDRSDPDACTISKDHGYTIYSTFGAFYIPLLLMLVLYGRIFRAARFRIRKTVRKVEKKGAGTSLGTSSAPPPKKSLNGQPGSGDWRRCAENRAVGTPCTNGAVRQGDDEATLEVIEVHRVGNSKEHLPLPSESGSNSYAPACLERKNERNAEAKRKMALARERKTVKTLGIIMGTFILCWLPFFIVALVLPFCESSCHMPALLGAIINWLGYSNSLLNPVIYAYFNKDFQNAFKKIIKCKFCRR

## CC(C)NC[C@H](O)COc1cccc2ccccc12 [LEVOPROPRANOLOL]
  Ki: 115 nM
